The supplement of paper PMC6411743
± gives the standard deviation of the averaged measurements. Only a part is listed here, and it is no random draw. Most values lie at the level of the controls, where differences are scatter.

Protein sequences, listed by entry. Tags and fused reporters are not part of them. Lines headed by an entry give the natural chain unless they say otherwise; changes in a name come on top.
UniProt Q9BT73: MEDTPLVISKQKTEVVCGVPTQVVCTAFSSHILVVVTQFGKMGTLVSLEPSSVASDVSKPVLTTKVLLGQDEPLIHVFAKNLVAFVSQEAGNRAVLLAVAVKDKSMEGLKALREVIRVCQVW
UniProt Q9BQC3: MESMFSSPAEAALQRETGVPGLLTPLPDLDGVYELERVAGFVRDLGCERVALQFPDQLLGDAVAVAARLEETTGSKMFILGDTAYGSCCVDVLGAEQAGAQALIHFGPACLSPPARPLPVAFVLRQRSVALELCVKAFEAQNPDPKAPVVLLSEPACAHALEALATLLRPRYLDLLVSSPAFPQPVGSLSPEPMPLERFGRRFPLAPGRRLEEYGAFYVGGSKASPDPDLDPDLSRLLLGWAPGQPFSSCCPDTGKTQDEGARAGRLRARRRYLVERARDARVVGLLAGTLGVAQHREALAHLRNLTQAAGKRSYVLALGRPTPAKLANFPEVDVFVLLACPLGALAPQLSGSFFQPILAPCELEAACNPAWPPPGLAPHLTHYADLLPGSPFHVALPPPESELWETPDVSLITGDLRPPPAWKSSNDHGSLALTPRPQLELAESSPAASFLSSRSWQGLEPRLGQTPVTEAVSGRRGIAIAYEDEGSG
UniProt Q9BXS6: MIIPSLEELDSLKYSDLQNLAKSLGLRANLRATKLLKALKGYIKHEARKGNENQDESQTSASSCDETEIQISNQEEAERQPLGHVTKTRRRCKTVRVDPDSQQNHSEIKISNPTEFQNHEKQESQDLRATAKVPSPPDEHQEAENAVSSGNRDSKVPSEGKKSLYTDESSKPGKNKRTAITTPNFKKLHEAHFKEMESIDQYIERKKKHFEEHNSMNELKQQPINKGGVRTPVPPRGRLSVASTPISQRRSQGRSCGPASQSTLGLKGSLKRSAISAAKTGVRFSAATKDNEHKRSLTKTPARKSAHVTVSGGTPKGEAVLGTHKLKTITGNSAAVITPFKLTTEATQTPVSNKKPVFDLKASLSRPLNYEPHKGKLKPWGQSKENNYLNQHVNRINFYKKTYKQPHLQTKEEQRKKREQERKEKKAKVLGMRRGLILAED
UniProt Q99613, whole entry: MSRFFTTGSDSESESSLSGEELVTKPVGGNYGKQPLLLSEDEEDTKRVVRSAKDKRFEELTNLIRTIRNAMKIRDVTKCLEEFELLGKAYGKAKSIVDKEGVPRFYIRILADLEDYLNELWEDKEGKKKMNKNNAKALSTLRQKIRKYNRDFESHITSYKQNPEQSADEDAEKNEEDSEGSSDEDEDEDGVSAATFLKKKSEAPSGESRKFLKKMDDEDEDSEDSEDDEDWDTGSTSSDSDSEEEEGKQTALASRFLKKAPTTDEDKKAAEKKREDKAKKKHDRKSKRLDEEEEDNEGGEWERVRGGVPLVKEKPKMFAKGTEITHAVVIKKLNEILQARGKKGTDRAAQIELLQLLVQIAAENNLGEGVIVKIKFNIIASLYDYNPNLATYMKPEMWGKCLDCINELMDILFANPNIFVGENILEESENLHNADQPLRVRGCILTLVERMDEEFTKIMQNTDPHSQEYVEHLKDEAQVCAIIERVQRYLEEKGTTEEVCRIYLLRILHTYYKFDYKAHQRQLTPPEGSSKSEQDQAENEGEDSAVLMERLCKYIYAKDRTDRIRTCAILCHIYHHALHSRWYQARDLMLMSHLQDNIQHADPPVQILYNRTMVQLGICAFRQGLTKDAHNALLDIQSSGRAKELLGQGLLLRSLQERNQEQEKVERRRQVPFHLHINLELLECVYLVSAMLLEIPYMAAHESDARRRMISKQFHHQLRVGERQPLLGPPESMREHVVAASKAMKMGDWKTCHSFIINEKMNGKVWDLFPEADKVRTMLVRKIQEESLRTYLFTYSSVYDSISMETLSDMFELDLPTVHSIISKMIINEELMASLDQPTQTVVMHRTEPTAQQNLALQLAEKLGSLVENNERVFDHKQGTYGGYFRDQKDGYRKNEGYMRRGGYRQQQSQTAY
UniProt Q9BU89: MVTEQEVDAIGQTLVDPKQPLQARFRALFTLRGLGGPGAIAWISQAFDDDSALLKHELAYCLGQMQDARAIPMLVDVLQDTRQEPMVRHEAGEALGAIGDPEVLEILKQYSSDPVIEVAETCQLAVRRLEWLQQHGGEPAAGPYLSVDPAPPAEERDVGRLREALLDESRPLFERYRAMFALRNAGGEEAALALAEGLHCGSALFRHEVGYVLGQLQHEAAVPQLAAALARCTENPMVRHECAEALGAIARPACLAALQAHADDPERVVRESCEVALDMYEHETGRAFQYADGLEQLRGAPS
UniProt Q99996, whole entry: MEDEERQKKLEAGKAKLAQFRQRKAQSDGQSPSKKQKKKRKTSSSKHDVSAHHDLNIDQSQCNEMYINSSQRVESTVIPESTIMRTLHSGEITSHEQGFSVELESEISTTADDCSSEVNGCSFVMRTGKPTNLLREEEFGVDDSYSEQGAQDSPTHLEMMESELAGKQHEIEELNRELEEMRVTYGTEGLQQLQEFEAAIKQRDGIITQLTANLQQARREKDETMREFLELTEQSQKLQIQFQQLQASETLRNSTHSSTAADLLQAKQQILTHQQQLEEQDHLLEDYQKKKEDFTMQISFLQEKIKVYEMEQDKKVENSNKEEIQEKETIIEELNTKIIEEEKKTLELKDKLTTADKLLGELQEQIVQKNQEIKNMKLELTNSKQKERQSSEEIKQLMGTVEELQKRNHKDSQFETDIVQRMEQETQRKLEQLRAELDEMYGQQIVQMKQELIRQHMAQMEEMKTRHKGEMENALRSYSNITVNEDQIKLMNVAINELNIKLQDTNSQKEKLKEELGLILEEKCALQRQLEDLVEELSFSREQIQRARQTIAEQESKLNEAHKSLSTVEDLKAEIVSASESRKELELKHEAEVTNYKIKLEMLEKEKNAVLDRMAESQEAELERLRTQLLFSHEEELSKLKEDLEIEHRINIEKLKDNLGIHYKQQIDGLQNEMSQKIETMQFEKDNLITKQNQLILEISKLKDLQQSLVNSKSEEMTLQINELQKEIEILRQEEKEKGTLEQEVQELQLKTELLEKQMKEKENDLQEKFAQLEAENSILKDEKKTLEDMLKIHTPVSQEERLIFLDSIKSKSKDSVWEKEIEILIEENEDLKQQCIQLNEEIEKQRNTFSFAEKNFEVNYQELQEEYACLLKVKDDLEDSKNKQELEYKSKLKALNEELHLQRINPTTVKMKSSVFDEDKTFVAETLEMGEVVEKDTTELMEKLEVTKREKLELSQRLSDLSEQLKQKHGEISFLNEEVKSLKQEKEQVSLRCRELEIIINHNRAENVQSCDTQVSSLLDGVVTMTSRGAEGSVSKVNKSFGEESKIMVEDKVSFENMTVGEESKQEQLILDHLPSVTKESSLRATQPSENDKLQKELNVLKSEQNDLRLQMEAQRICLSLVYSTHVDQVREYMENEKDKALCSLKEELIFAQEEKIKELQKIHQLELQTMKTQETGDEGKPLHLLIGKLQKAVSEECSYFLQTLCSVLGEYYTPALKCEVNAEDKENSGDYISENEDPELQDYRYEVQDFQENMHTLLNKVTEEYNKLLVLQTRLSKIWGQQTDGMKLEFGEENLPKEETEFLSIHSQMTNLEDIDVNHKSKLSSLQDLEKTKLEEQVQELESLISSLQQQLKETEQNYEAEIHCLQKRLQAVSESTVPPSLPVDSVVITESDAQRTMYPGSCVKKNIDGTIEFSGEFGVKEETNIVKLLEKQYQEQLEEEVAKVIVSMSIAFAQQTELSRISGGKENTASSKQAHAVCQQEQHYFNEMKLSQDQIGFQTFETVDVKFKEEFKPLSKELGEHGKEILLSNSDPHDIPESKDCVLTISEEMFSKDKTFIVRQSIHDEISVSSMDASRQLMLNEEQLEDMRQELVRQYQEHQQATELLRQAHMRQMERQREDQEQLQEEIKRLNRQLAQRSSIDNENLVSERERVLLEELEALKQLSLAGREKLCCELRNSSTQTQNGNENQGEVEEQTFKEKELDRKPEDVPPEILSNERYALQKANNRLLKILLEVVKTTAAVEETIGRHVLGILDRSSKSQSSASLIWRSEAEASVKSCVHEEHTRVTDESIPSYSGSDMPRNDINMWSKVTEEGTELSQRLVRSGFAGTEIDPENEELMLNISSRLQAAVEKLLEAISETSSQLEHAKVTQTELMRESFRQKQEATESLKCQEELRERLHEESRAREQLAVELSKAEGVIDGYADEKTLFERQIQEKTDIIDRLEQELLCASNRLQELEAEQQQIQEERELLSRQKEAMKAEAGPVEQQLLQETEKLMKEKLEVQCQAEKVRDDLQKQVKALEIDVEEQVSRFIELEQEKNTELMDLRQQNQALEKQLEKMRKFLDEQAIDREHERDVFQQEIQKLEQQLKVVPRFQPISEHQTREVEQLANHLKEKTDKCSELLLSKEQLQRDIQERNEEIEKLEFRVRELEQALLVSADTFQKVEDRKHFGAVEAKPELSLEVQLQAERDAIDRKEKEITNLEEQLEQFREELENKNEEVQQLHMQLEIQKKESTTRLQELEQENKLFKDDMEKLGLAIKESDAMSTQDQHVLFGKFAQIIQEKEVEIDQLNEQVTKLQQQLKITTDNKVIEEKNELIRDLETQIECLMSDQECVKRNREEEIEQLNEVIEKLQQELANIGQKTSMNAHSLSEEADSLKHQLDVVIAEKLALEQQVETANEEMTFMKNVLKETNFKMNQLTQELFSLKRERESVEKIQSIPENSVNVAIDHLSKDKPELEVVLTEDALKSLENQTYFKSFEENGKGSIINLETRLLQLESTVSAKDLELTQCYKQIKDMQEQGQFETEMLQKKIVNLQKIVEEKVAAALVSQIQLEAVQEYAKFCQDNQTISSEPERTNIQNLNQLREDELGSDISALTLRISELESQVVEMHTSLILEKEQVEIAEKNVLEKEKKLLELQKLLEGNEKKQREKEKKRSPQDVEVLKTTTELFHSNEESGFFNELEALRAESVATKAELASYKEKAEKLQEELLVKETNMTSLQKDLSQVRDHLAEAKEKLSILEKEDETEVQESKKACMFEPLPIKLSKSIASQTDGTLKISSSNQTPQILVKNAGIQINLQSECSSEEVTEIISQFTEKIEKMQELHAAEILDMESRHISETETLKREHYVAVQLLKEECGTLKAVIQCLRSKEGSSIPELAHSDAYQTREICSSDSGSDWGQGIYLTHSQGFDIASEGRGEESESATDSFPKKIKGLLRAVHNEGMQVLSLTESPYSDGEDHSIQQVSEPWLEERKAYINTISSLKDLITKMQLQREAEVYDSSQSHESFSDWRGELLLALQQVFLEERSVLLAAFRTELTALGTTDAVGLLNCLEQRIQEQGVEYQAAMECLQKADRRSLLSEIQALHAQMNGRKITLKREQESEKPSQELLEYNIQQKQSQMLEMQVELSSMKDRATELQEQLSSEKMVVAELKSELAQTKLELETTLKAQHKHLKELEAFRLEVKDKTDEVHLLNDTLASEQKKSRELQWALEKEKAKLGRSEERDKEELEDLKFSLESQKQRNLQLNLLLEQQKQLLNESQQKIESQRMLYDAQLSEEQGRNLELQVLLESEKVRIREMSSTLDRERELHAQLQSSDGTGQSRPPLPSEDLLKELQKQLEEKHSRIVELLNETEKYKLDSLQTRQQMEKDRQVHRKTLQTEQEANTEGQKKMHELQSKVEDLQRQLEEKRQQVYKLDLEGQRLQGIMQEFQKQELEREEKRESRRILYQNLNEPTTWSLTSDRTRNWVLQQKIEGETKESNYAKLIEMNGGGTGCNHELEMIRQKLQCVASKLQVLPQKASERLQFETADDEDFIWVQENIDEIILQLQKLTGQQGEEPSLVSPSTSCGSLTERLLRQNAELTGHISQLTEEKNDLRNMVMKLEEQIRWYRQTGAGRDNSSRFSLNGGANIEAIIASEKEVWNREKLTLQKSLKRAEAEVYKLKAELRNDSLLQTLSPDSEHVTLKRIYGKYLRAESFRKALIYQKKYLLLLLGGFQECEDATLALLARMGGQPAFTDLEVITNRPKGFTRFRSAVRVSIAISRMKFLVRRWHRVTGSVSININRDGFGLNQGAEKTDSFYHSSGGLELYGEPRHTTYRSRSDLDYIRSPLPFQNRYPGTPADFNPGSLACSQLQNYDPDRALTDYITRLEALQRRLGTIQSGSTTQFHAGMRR
UniProt Q9BUL5: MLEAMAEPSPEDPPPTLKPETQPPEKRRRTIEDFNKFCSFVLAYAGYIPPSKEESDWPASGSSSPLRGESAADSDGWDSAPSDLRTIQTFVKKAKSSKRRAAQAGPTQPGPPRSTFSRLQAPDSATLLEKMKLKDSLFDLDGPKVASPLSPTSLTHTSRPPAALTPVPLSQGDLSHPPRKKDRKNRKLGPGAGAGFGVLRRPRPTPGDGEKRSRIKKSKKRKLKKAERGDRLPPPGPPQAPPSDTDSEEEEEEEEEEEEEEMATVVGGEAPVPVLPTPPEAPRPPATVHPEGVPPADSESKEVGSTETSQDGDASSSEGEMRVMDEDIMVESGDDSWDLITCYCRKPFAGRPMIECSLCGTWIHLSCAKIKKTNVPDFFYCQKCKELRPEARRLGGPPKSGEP

Compound: Nc1ncnc2c1ncn2[C@@H]1O[C@H](COP(=O)(O)OP(=O)(O)OP(=O)(O)O)[C@@H](O)[C@H]1O [adenosine triphosphate]
Test: NP40-soluble protein abundance relative to vehicle (solubility fold change) (ratio); higher = more soluble protein in presence of ATP
Procedure, shortened: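 Data come from three independent experiments in which Dounce-homogenised Jurkat crude lysate was treated at eight concentrations from 0.1 to 10 mM. Treatment ran 10 min at room temperature and then 3 min at 37 °C, after which 0.8% NP40 and benzonase were added for 60 min at 4 °C before ultracentrifugation. The supernatant underwent TMT labelling and LC-MS/MS, and vsn-normalised intensities were expressed as fold change against the detergent-processed vehicle in each replicate.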

Target	NP40-soluble protein abundance (concentration: 0.1mM)	NP40-soluble protein abundance (concentration: 0.5mM)
UniProt Q99871 and related entries	0.938 ± 0.046	0.895 ± 0.091
UniProt Q9BUK6 and related entries	1.03 ± 0.061	1.06 ± 0.037
MRPS26 (UniProt Q9BYN8)	0.93 ± 0.12	0.885 ± 0.17
RPAP1 (UniProt Q9BWH6)	0.979 ± 0.012	0.992 ± 0.05
PSMG3 (UniProt Q9BT73)	0.982 ± 0.013	0.972 ± 0.12
NUP88 (UniProt Q99567)	1.03 ± 0.043	1.05 ± 0.053
UniProt Q9BZE9 and related entries	0.9735 ± 0.0056	0.981 ± 0.038
HEMGN (UniProt Q9BXL5)	0.947 ± 0.052	0.94 ± 0.042
DPH2 (UniProt Q9BQC3)	0.989 ± 0.016	0.934 ± 0.084
TBCB (UniProt Q99426)	1.01 ± 0.029	0.994 ± 0.039
MRPL20 (UniProt Q9BYC9)	0.937 ± 0.083	0.995 ± 0.088
GINS3 (UniProt Q9BRX5)	0.945 ± 0.054	0.924 ± 0.081
ACAT2 (UniProt Q9BWD1)	0.979 ± 0.038	0.99 ± 0.053
UniProt Q96T76 and related entries	0.983 ± 0.034	0.94 ± 0.029
UniProt Q9BQG0 and related entries	0.978 ± 0.018	0.978 ± 0.087
IFIH1 (UniProt Q9BYX4)	1.03 ± 0.025	0.967 ± 0.068
UniProt Q96TA1 and related entries	1.02 ± 0.021	1.03 ± 0.027
UniProt Q9BXS6 and related entries	0.947 ± 0.022	0.954 ± 0.015
ULBP2 (UniProt Q9BZM5)	0.933 ± 0.074	0.939 ± 0.075
UniProt Q99828 and related entries	1.03 ± 0.095	0.933 ± 0.096
UniProt Q9BRX8 and related entries	1.06 ± 0.12	1.03 ± 0.086
UniProt Q9BRR9-2|Q9BRR9-4|Q9BRR9-5|R4GN15	0.966 ± 0.049	0.915 ± 0.058
UniProt Q99613 and related entries	0.969 ± 0.06	0.957 ± 0.07
C1orf50 (UniProt Q9BV19)	1.02 ± 0.047	0.974 ± 0.07

Full records as entered above. Values in the order: NP40-soluble protein abundance (concentration: 0.1mM)	NP40-soluble protein abundance (concentration: 0.5mM)
IFIH1 (UniProt Q9BYX4) reads 1.03 ± 0.025	0.967 ± 0.068
TBCB (UniProt Q99426) reads 1.01 ± 0.029	0.994 ± 0.039
UniProt Q99613 and related entries reads 0.969 ± 0.06	0.957 ± 0.07
UniProt Q9BUK6 and related entries reads 1.03 ± 0.061	1.06 ± 0.037

(listing goes on)

Target	NP40-soluble protein abundance (concentration: 0.1mM)	NP40-soluble protein abundance (concentration: 0.5mM)
SMAD5 (UniProt Q99717)	1.09 ± 0.067	1.03 ± 0.11
NABP2 (UniProt Q9BQ15)	0.892 ± 0.11	1.01 ± 0.17
PAIP2 (UniProt Q9BPZ3)	0.979 ± 0.033	0.946 ± 0.034
RBM4 (UniProt Q9BWF3)	1 ± 0.021	1.02 ± 0.03
OSBPL11 (UniProt Q9BXB4)	1.04 ± 0.015	1.01 ± 0.012
PARK7 (UniProt Q99497)	0.986 ± 0.021	1 ± 0.05
PSMB7 (UniProt Q99436)	0.97 ± 0.1	0.983 ± 0.04
GRWD1 (UniProt Q9BQ67)	1.03 ± 0.029	1.05 ± 0.03
MRPL1 (UniProt Q9BYD6)	0.953 ± 0.089	0.992 ± 0.056
NUP85 (UniProt Q9BW27)	1.03 ± 0.081	1.02 ± 0.069
DOHH (UniProt Q9BU89)	0.923 ± 0.079	0.893 ± 0.14
UniProt Q99719 and related entries	1.07 ± 0.032	1.05 ± 0.031
UniProt Q9BU61	1 ± 0.059	0.952 ± 0.016
TCF25 (UniProt Q9BQ70)	0.993 ± 0.03	0.988 ± 0.064
NOC4L (UniProt Q9BVI4)	1.02 ± 0.062	1 ± 0.023
UniProt Q9BYV8	0.942 ± 0.036	0.9607 ± 0.0058
CDC5L (UniProt Q99459)	0.991 ± 0.019	1 ± 0.053
UniProt Q9BRJ7 and related entries	1.03 ± 0.073	0.978 ± 0.045
UniProt Q9BRR6 and related entries	1.04 ± 0.18	1.02 ± 0.17
UniProt Q9BQ52 and related entries	1.02 ± 0.028	1.02 ± 0.024
BUD13 (UniProt Q9BRD0)	1.01 ± 0.054	1.05 ± 0.07
PAPOLG (UniProt Q9BWT3)	1.07 ± 0.082	1.11 ± 0.029
NIPSNAP1 (UniProt Q9BPW8)	1.04 ± 0.05	1.03 ± 0.053
PCGF6 (UniProt Q9BYE7)	0.953 ± 0.11	1 ± 0.028

Target	NP40-soluble protein abundance (concentration: 0.1mM)	NP40-soluble protein abundance (concentration: 0.5mM)
UniProt Q96TC7	0.997 ± 0.018	1.03 ± 0.033
ECSIT (UniProt Q9BQ95)	0.993 ± 0.05	0.992 ± 0.053
UniProt Q9BZL4 and related entries	0.979 ± 0.013	0.988 ± 0.029
UniProt Q96TA2 and related entries	1.02 ± 0.029	1.05 ± 0.045
SF3B5 (UniProt Q9BWJ5)	0.934 ± 0.11	0.984 ± 0.092
UniProt Q9BSH4	0.99 ± 0.068	0.99 ± 0.033
UniProt Q9BTD8 and related entries	1.01 ± 0.065	1.02 ± 0.084
UniProt Q9BXW7 and related entries	1.02 ± 0.059	1.01 ± 0.032
KLF16 (UniProt Q9BXK1)	0.9 ± 0.18	0.892 ± 0.18
UniProt Q9BRT3	0.936 ± 0.053	0.898 ± 0.11
UniProt Q99996-3|Q99996-5|A0A0A0MRF6|Q99996 and related entries	0.979 ± 0.058	1.01 ± 0.081
MIPEP (UniProt Q99797)	1.04 ± 0.069	1.02 ± 0.073
TXN2 (UniProt Q99757)	1.02 ± 0.092	0.948 ± 0.1
UniProt Q99549 and related entries	0.984 ± 0.017	1.04 ± 0.019
PARD6B (UniProt Q9BYG5)	1.02 ± 0.055	1.06 ± 0.06
DIDO1 (UniProt Q9BTC0)	0.993 ± 0.025	1.12 ± 0.039
DNAJC7 (UniProt Q99615)	0.986 ± 0.033	1 ± 0.039
UniProt Q9BYD1 and related entries	1.03 ± 0.13	1.02 ± 0.057
UniProt Q9BQS8 and related entries	0.986 ± 0.018	0.962 ± 0.032
UniProt Q9BV81	1 ± 0.052	0.959 ± 0.086
ADI1 (UniProt Q9BV57)	0.996 ± 0.074	1 ± 0.1
UniProt Q9BZE1 and related entries	1.02 ± 0.14	1.11 ± 0.2
UniProt Q9BUB5 and related entries	1.03 ± 0.033	1.02 ± 0.037
UniProt Q9BW83 and related entries	1.04 ± 0.1	1.02 ± 0.1

Two neighbouring entries from above, quoted:
Target	NP40-soluble protein abundance (concentration: 0.1mM)	NP40-soluble protein abundance (concentration: 0.5mM)
UniProt Q96T76 and related entries	0.983 ± 0.034	0.94 ± 0.029
UniProt Q9BQG0 and related entries	0.978 ± 0.018	0.978 ± 0.087

(cont.)

Target	NP40-soluble protein abundance (concentration: 0.1mM)	NP40-soluble protein abundance (concentration: 0.5mM)
UniProt Q99767-2	0.92 ± 0.089	0.848 ± 0.092
TM9SF2 (UniProt Q99805)	1.09 ± 0.12	1.06 ± 0.1
NLN (UniProt Q9BYT8)	1.06 ± 0.089	1.04 ± 0.066
UniProt Q99714 and related entries	0.9845 ± 0.0067	0.991 ± 0.011
UniProt Q9BQI0 and related entries	0.85 ± 0.18	0.865 ± 0.14
UniProt Q9BQF6 and related entries	1.02 ± 0.036	1.11 ± 0.059
UniProt Q9BUH6	1.01 ± 0.018	1.01 ± 0.06
UniProt Q9BY12 and related entries	1.02 ± 0.019	1.04 ± 0.084
EIF2A (UniProt Q9BY44)	0.99 ± 0.046	1.01 ± 0.032
ABHD6 (UniProt Q9BV23)	1.13 ± 0.14	1.07 ± 0.076
UniProt Q9BQA9 and related entries	1.02 ± 0.07	0.937 ± 0.074
UniProt Q9BUT1 and related entries	0.967 ± 0.025	0.9458 ± 0.0039
UniProt Q9BX66 and related entries	0.948 ± 0.058	0.932 ± 0.13
UniProt Q9BYG3	1.02 ± 0.071	1.07 ± 0.051
RNF5 (UniProt Q99942)	0.956 ± 0.038	0.935 ± 0.056
ADAT1 (UniProt Q9BUB4)	1.09 ± 0.15	1.07 ± 0.077
UniProt Q9BUL5 and related entries	0.962 ± 0.024	0.966 ± 0.048
UniProt Q9BVS4	1 ± 0.076	1.07 ± 0.077
RAB11FIP5 (UniProt Q9BXF6)	1.18 ± 0.21	1.15 ± 0.077
UniProt Q9BYX2 and related entries	1.07 ± 0.088	1.02 ± 0.011
TMED9 (UniProt Q9BVK6)	1.07 ± 0.11	1.03 ± 0.095
PUS3 (UniProt Q9BZE2)	1.04 ± 0.073	1.06 ± 0.045
TIPIN (UniProt Q9BVW5)	0.924 ± 0.058	0.889 ± 0.098
COPS4 (UniProt Q9BT78)	0.961 ± 0.041	0.959 ± 0.04

Target	NP40-soluble protein abundance (concentration: 0.1mM)	NP40-soluble protein abundance (concentration: 0.5mM)
YTHDF1 (UniProt Q9BYJ9)	1.06 ± 0.067	1.07 ± 0.051
SEC62 (UniProt Q99442)	0.995 ± 0.024	0.978 ± 0.047
UniProt Q9BUR4	1.04 ± 0.012	1.14 ± 0.013
VPS25 (UniProt Q9BRG1)	1.05 ± 0.083	1.05 ± 0.084
UniProt Q9BU76 and related entries	0.966 ± 0.041	1.02 ± 0.044
UniProt Q99638 and related entries	1.04 ± 0.13	1.02 ± 0.17
UniProt Q9BXP5-2|Q9BXP5-3|Q9BXP5-4	1 ± 0.02	1.06 ± 0.064
UniProt Q9BSJ2 and related entries	1.04 ± 0.14	1.04 ± 0.026
PHF20 (UniProt Q9BVI0)	1.02 ± 0.045	1.12 ± 0.063
PIK3R4 (UniProt Q99570)	1.01 ± 0.049	0.972 ± 0.01
UniProt Q9BPZ7 and related entries	0.956 ± 0.043	1.02 ± 0.035
UniProt Q9BTA9 and related entries	0.964 ± 0.048	0.94 ± 0.028
LIMD2 (UniProt Q9BT23)	0.939 ± 0.016	1.02 ± 0.055
UniProt Q9BT25 and related entries	0.974 ± 0.052	0.897 ± 0.068
ALKBH7 (UniProt Q9BT30)	0.963 ± 0.098	0.941 ± 0.089
UniProt Q9BY77 and related entries	0.955 ± 0.025	0.933 ± 0.012
UniProt Q9BVC5 and related entries	0.974 ± 0.04	0.938 ± 0.068
UniProt Q9BV73 and related entries	0.97 ± 0.034	0.966 ± 0.061
UniProt Q9BXW9 and related entries	0.9454 ± 0.0066	0.966 ± 0.037
RIOK1 (UniProt Q9BRS2)	1.031 ± 0.0096	1.07 ± 0.067
UniProt Q9BVC4 and related entries	1.01 ± 0.06	0.965 ± 0.044
UniProt Q99683 and related entries	1.01 ± 0.052	1.032 ± 0.0062
ITPA (UniProt Q9BY32)	1.06 ± 0.069	1.02 ± 0.092
UniProt Q9BQ61	0.91 ± 0.13	0.881 ± 0.16
